{
  "source": "PubChem BioAssay AID540303",
  "about": "(National Center for Advancing Translational Sciences (NCATS), 2011)",
  "note": "In all, about 330,000 compounds went through this assay and about 1,000 (0.3%) were called active. Inconclusive means that the source gave no clear call. Such entries were picked first, then a sample of the others. Calls follow the shape of the dose curve; as a rule, active = well fitted inhibition curve with a large enough effect; inconclusive = small, poorly fitted or top-dose-only effect; inactive = no such curve, though single readings can be large or run the other way; tested in mouse RAW 264.7 cells. Potencies beside an inconclusive call are fits to weak or partial responses and may not hold up. Potency is read from the fitted curve at half-maximal effect.",
  "data": [
    {"assay": "qHTS for Inhibitors of Cell Surface uPA Generation; also: nearly all actives have a fitted effect of over 55% in size", "settings": "cell surface uPA generation assay; series mostly up to 38.3 µM", "how_it_was_run": "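RAW 264.7, 4000 cells/well, o/n 37 C; cpd 1:5 dilution, up to 38.3 uM final; 24 h 37 C/5% CO2 with reagent; ATP-Lite lum. High ATP = LF entry blocked.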", "values": [
      {"smiles": "Cc1cc(S(=O)(=O)NCc2ccccc2)ccc1OCC(=O)Nc1cccc([N+](=O)[O-])c1", "Potency": "inactive"},
      {"smiles": "Cc1ccccc1CN(C)C(=O)c1ccc2ccccc2n1", "Potency": "inactive"},
      {"smiles": "O=C(CCC1CCCCC1)Nc1cc(Cl)ccc1N1CCOCC1", "Potency": "inactive"},
      {"smiles": "c1cncc(-c2nnc(SCc3cccc4ccccc34)o2)c1", "Potency": "inconclusive: 11.2 µM [inhibitor, partial curve, poor fit]"},
      {"smiles": "O=C1NCC(COc2ccc([N+](=O)[O-])cc2)O1", "note": "(stereo unspecified)", "Potency": "inactive"},
      {"smiles": "O=C(CS(=O)(=O)c1ccccc1)c1ccc2c(c1)OCCO2", "Potency": "inactive"},
      {"smiles": "CC(C)N1CCNCC1", "Potency": "inactive"},
      {"smiles": "O=C(/C=C/c1ccc(-c2ccccc2[N+](=O)[O-])o1)c1ccc(F)cc1", "Potency": "inconclusive: 12.6 µM [inhibitor, single point]"},
      {"smiles": "COc1cc2nc(N(CCCN(C)C)C(=O)c3ccc(S(=O)(=O)N4CCc5ccccc5C4)cc3)sc2cc1OC", "Potency": "inactive"},
      {"smiles": "Cc1ccc(Cn2c(N/N=C/c3ccncc3)nc3c2c(=O)n(C)c(=O)n3C)cc1", "Potency": "inactive"},
      {"smiles": "CCOC(=O)C1CCN(Cc2ccc(OC)c(OCc3ccccc3)c2)CC1", "Potency": "inconclusive: 7.08 µM [inhibitor, partial curve, poor fit]"},
      {"smiles": "Clc1cccc(Cl)c1COn1nnc2ccccc21", "Potency": "inconclusive: 11.2 µM [inhibitor, partial curve, poor fit]"},
      {"smiles": "O=C(c1cc2ccccc2cc1O)N1CCCC(C(F)(F)F)C1", "note": "(stereo unspecified)", "Potency": "inconclusive: 5.62 µM [inhibitor, full curve, poor fit]"},
      {"smiles": "COc1cccc(C2C(C(C)=O)=C(O)C(=O)N2CCc2c[nH]c3ccccc23)c1", "note": "(stereo unspecified)", "Potency": "inactive"},
      {"smiles": "COCc1cc(=O)n2c(-c3ccc(C)cc3)n[nH]c2n1", "Potency": "inconclusive: 8.91 µM [inhibitor, partial curve]"},
      {"smiles": "O=C(NCc1nnnn1-c1cccc(F)c1)c1ccc(S(=O)(=O)N2CCOCC2)cc1", "Potency": "inconclusive: 3.55 µM [inhibitor, partial curve, poor fit]"},
      {"smiles": "[O-]C(=C(C(=S)Nc1cccc2ccccc12)[n+]1cccc(CO)c1)c1ccc(Cl)s1", "Potency": "inactive"},
      {"smiles": "Cc1cccc(C)c1NC(=O)N1CCC(C(=O)c2ccc(F)cc2)CC1", "Potency": "inactive"},
      {"smiles": "O=C(NC1CC1)C1=C[C@@H](c2coc3ccccc3c2=O)C[C@@H](OCCCCO)O1", "Potency": "inconclusive: 10 µM [inhibitor, single point]"},
      {"smiles": "CC(=O)c1ccc(Nc2ccc(-c3ccccc3C)nn2)cc1", "Potency": "inconclusive: 5.62 µM [inhibitor, partial curve, poor fit]"},
      {"smiles": "C[C@@H]1CN([C@H](C)CO)C(=O)c2cc(NC(=O)Nc3ccc(C(F)(F)F)cc3)ccc2O[C@H]1CN(C)S(=O)(=O)c1ccc(Cl)cc1", "Potency": "inconclusive: 12.6 µM [inhibitor, partial curve, poor fit]"},
      {"smiles": "COc1ccc2nc(-c3ccc(F)cc3)sc2c1", "Potency": "inconclusive: 3.98 µM [inhibitor, partial curve]"},
      {"smiles": "Cc1ccc(CSCC(=O)Nc2ccccc2C(=O)O)cc1", "Potency": "inconclusive: 28.2 µM [inhibitor, single point]"},
      {"smiles": "Cc1ccc(C)c(C(=O)Nc2nc3ccccc3[nH]2)c1", "Potency": "inactive"},
      {"smiles": "COc1ccc(NC(=O)CC(CC(=O)O)c2cc(OC)c(OC)c(OC)c2)cc1", "note": "(stereo unspecified)", "Potency": "inconclusive: 7.94 µM [inhibitor, single point]"},
      {"smiles": "COCCCn1c(=O)c2ccccc2n(CC(=O)NCCC2=CCCCC2)c1=O", "Potency": "inactive"},
      {"smiles": "Cc1cccc(C)c1OCC(=O)N/N=C/C=C/c1ccco1", "Potency": "inconclusive: 14.1 µM [inhibitor, single point]"},
      {"smiles": "CS(=O)(=O)c1ccc(Cl)c(NC(=O)COC(=O)CNC(=O)c2sc3ccccc3c2Cl)c1", "Potency": "inactive"},
      {"smiles": "Cc1cc(C)c2c(=O)n(CC(=O)Nc3ccc(Br)c(C)c3)sc2n1", "Potency": "inactive"},
      {"smiles": "Cc1cc(-c2cc(C(=O)NCc3ccccc3)on2)nc(S(C)(=O)=O)n1", "Potency": "inconclusive: 2 µM [inhibitor, full curve, poor fit]"},
      {"smiles": "CN1CCN(S(=O)(=O)c2cccc(C(=O)N(C)Cc3c(F)cccc3Cl)c2)CC1", "Potency": "inconclusive: 7.94 µM [inhibitor, partial curve, poor fit]"},
      {"smiles": "CCCNC(=O)c1ccccc1NC(=O)COc1cccc2c1OC(C)(C)C2", "Potency": "inactive"},
      {"smiles": "Cc1ccnc(NC(=O)c2ccc3[nH]c(=O)c(=O)[nH]c3c2)c1", "Potency": "inconclusive: 10 µM [inhibitor, partial curve, poor fit]"},
      {"smiles": "CCOc1ccc2oc(C(=O)Nc3ccc4c(c3)OCO4)c(C)c2c1", "Potency": "inactive"},
      {"smiles": "Cc1ccc(C(C)C)c(OCC(=O)Nn2c(=O)[nH]c3ccccc3c2=O)c1", "Potency": "inactive"},
      {"smiles": "CCN(CC)C(=O)[C@H]1CC(CC(=O)NCC23CC4CC(CC(C4)C2)C3)C(=O)N2CCc3c([nH]c4ccc(OC)cc34)[C@]12C", "note": "(stereo partly specified)", "Potency": "inconclusive: 12.6 µM [inhibitor, single point]"},
      {"smiles": "Oc1ccc(N=Cc2c(O)ccc3ccccc23)cc1", "Potency": "inconclusive: 31.6 µM [inhibitor, single point]"},
      {"smiles": "Cc1ccccc1N=C1NC(=O)/C(=C/c2cccn2C)S1", "Potency": "inconclusive: 12.6 µM [inhibitor, single point]"},
      {"smiles": "COc1ccc(/C=C/c2nc3ccccc3n2Cc2ccc(OC)c(OC)c2)cc1", "Potency": "inconclusive: 11.2 µM [inhibitor, partial curve, poor fit]"},
      {"smiles": "Cc1cc(C(C#N)c2ccc(Cl)cc2)c(Cl)cc1NC(=O)c1cc(I)cc(I)c1O", "note": "(stereo unspecified)", "Potency": "inactive"},
      {"smiles": "Cc1ccc(NC(=O)c2ccc([N+](=O)[O-])o2)c(C)c1", "Potency": "inconclusive: 8.91 µM [inhibitor, partial curve, poor fit]"},
      {"smiles": "O=C(NCc1ccncc1)Nc1ccc2c(c1)OCO2", "Potency": "inactive"},
      {"smiles": "COc1ccc(N=Cc2ccc[nH]2)cc1", "Potency": "inconclusive: 5.62 µM [inhibitor, partial curve]"},
      {"smiles": "Cc1cccc(N2C(S)=C(C#N)C(=O)NC2c2ccco2)c1", "note": "(stereo unspecified)", "Potency": "inactive"},
      {"smiles": "COc1cccc2sc(Nc3nnc(-c4ccccc4Cl)o3)nc12", "Potency": "inconclusive: 0.794 µM [inhibitor, full curve, poor fit]"},
      {"smiles": "Cc1cc(NC(=O)CC(CN(C)S(=O)(=O)c2ccccc2)c2ccccc2)no1", "note": "(stereo unspecified)", "Potency": "inconclusive: 12.6 µM [inhibitor, partial curve, poor fit]"},
      {"smiles": "COc1ccc(N2CCN(C(=O)CNC(=O)Cc3ccc(Cl)cc3)CC2)cc1", "Potency": "inconclusive: 11.2 µM [inhibitor, single point]"},
      {"smiles": "COc1ccc(-c2noc3c2-c2nc(-c4cccc(C)c4)sc2CC3)cc1", "Potency": "inactive"},
      {"smiles": "CCOc1ccc(N(CC(=O)Nc2ccc(C)c(C)c2)S(=O)(=O)c2c(C)noc2C)cc1", "Potency": "active: 12.6 µM"},
      {"smiles": "Cc1ccc(Nc2nc(-c3ccncc3)nc3ccccc23)cc1", "Potency": "inactive"},
      {"smiles": "Cc1ccc(-n2ncc(Cl)c2C(=O)NC2CC2)cc1", "Potency": "inactive"},
      {"smiles": "CSc1ncc(C(=O)Nc2ccc(Br)cn2)c(C)n1", "Potency": "inconclusive: 12.6 µM [inhibitor, single point]"},
      {"smiles": "O=C(COC(=O)c1ccc(S(=O)(=O)N2CCCC2)cc1)NCc1ccco1", "Potency": "inactive"},
      {"smiles": "CCN1CCN(Cc2ccc(NC(=O)c3cc(NC(=O)C(=O)c4c[nH]c5ccccc45)cc(OC)c3)cc2C(F)(F)F)CC1", "Potency": "inconclusive: 25.1 µM [inhibitor, single point]"},
      {"smiles": "CC(C)c1ccc(NC(=O)[C@@H](NC(=O)N2CC(=O)Nc3ccccc32)C(C)C)cc1", "Potency": "inconclusive: 12.6 µM [inhibitor, single point]"},
      {"smiles": "COc1ccc(CCn2c(=N)c(C(=O)NCCN3CCOCC3)cc3c(=O)n4cccc(C)c4nc32)cc1OC", "Potency": "inconclusive: 11.2 µM [inhibitor, partial curve, poor fit]"},
      {"smiles": "Fc1cccc(Cl)c1CSc1nnnn1-c1ccc2c(c1)OCO2", "Potency": "inconclusive: 7.08 µM [inhibitor, partial curve, poor fit]"},
      {"smiles": "COc1cc2ccccc2cc1C(=O)Nc1ccc(C)cc1", "Potency": "active: 20 µM"},
      {"smiles": "Cc1ccc(CN(C)C(=O)CN2C(=O)NC3(CCCc4ccccc43)C2=O)c(C)c1", "note": "(stereo unspecified)", "Potency": "inactive"},
      {"smiles": "O=C(CSc1ncc(-c2ccccc2)[nH]1)Nc1cccc(O)c1", "Potency": "inactive"},
      {"smiles": "C=CCc1cccc(/C=N/NC(=O)CNc2ccccc2OC)c1O", "Potency": "inconclusive: 28.2 µM [inhibitor, single point]"},
      {"smiles": "O=C(NCc1ccccc1)C1=C[C@@H](C2CCCCC2)C[C@@H](OCc2ccc(CO)cc2)O1", "Potency": "inconclusive: 12.6 µM [inhibitor, single point]"},
      {"smiles": "COc1cc2cnc(-c3ccsc3)cc2cc1OC", "Potency": "inconclusive: 5.01 µM [inhibitor, partial curve, poor fit]"},
      {"smiles": "COc1ccc(-c2sc(C(=O)c3ccc(Cl)cc3Cl)cc2CC(=O)O)cc1", "Potency": "inactive"},
      {"smiles": "C#CCNCCS(=O)(=O)N(Cc1ccc(Br)cc1)[C@@H](CC(C)C)C(=O)O", "Potency": "inactive"},
      {"smiles": "CN(Cc1ccc(OC(F)F)cc1)C(=O)c1cccc(S(=O)(=O)N2CCN(c3ccccc3)CC2)c1", "Potency": "inconclusive: 14.1 µM [inhibitor, partial curve, poor fit]"},
      {"smiles": "CCOc1ccc(N(CC(=O)N/N=C/c2ccccn2)S(=O)(=O)c2ccc(Cl)cc2)cc1", "Potency": "inconclusive: 3.16 µM [inhibitor, partial curve]"},
      {"smiles": "O=C(C(c1ccccc1)c1ccccc1)N1CCN(c2ccccn2)CC1", "Potency": "inconclusive: 1.41 µM [inhibitor, single point]"},
      {"smiles": "CN(C)S(=O)(=O)c1ccc(N2CCCC2)c(C(=O)Nc2cccc(F)c2)c1", "Potency": "inconclusive: 8.91 µM [inhibitor, single point]"},
      {"smiles": "O=C(Cn1ncc(Cl)c(Cl)c1=O)N1CCN(Cc2ccccc2)CC1", "Potency": "active: 11.2 µM"},
      {"smiles": "COc1ccc(NC(C)=O)cc1NC(C)C(=O)Nc1ccc(S(=O)(=O)N2CCCCC2)cc1", "note": "(stereo unspecified)", "Potency": "active: 3.16 µM"}
    ]}
  ]
}
